Consider 4 sequences from article PMC6255703.

For data set [1], the target named is T1, GST-tSlARF10 (GST-SlARF10 B3 domain) (Solanum lycopersicum) (UniProt E2FHH6).
T1 sequence (looked up): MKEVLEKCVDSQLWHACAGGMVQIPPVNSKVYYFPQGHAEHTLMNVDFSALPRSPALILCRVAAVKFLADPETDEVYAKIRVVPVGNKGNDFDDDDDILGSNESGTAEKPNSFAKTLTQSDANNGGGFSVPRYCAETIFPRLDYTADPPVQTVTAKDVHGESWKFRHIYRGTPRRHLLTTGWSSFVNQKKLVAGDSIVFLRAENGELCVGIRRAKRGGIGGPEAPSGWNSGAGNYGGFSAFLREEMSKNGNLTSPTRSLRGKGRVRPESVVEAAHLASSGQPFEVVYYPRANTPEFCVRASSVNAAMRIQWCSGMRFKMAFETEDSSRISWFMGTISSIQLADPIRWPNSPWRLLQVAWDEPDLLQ
The data set is described as follows: competition with a labelled probe. The conditions noted are these: mutated probe did not abolish shift; LightShift Chemiluminescent EMSA Kit, 6% native polyacrylamide gel; pH and temperature not stated; recombinant protein; residues 1-366; protein details: GST (pGEX-4T-1). Background: In EMSA bound probe runs differently from free probe, usually more slowly.

The target in data set [2] is T1, GST-tSlARF10 (GST-SlARF10 B3 domain) (Solanum lycopersicum). The data set is described as follows: EMSA. The conditions noted are these: abolished dose-dependently by unlabeled same-sequence competitor; LightShift Chemiluminescent EMSA Kit, 6% native polyacrylamide gel; pH and temperature not stated; recombinant protein; residues 1-366; protein details: GST (pGEX-4T-1); label: 3' biotin (unlabeled as competitor).

The next data set deals with GST. The data set is described as follows: EMSA. The conditions noted are these: GST only, text does not say which of the two SlGLK1 probes; LightShift Chemiluminescent EMSA Kit, 6% native polyacrylamide gel; pH and temperature not stated; recombinant protein; label: 3' biotin (unlabeled as competitor).

For some assays here: No signal at the amounts used counts as a negative. At least one verdict was read from the data and is not stated in words by the source. For some assays here: Where a protein sequence is shown, tags need not be part of it. For some assays here: Construct, isoform or probe ends are uncertain for at least one entry.

As to “AGTTTTTAAAAAAATTATTAGTAAAAAATAAATAAATTTTACCGTCAAAA (double strand) [SlGLK1 mutant probe 1 (F1/R1)]”, in data set [1], the binding result is given as “no binding”.

With “AGTTTTTAAAAAAATTATTAGTGAGACATAAATAAATTTTACCGTCAAAA (double strand) [SlGLK1 promoter probe 1 (F1/R1)]”, the binding result in data set [2] is given as “binds”.

In the case of “CCACTTCCAACATAACCCTACCAAAAAAAATTTCAACTTGCAAGCCTTTC (double strand) [SlGLK1 mutant probe 2 (F2/R2)]”, the binding result in data set [1] is recorded as “no binding”.

In the case of “CCACTTCCAACATAACCCTACCATGTCTCATTTCAACTTGCAAGCCTTTC (double strand) [SlGLK1 promoter probe 2 (F2/R2)]”, the figures for the binding result (in data set [2]; in the data set on GST) were “binds” and “no binding”, respectively.
